In experiment [1] the target is T1, PHYTOCHROME … FACTOR 7 (PIF7) of Arabidopsis thaliana (Arabidopsis thaliana) (UniProt Q570R7).
T1 sequence: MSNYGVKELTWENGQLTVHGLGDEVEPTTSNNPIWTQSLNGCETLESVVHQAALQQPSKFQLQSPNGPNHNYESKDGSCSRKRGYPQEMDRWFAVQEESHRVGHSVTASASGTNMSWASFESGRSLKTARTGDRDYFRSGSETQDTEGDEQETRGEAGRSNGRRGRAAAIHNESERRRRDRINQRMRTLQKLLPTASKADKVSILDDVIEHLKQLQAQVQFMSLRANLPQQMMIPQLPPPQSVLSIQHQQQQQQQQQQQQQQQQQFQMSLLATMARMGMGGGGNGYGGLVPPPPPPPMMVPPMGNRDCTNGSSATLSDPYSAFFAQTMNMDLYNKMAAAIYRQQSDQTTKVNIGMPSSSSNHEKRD
Kind of experiment: two-hybrid.

Experiment [2] has as its target LONG HYPOCOTYL IN FR 1 (HFR1) of Arabidopsis thaliana (Arabidopsis thaliana) (UniProt Q9FE22). Put plainly: two-hybrid.

These results are taken from publication doi:10.1101/2020.09.02.271551.

These are yes or no findings as the source states them, for the method shown. Some binding calls cover weakened binding; strength is not graded here.

B1: LONG HYPOCOTYL IN FR 1 (HFR1) of Arabidopsis thaliana (protein, UniProt Q9FE22 1-292)
chain: MSNNQAFMELGWRNDVGSLAVKDQGMMSERARSDEDRLINGLKWGYGYFDHDQTDNYLQIVPEIHKEVENAKEDLLVVVPDEHSETDDHHHIKDFSERSDHRFYLRNKHENPKKRRIQVLSSDDESEEFTREVPSVTRKGSKRRRRDEKMSNKMRKLQQLVPNCHKTDKVSVLDKTIEYMKNLQLQLQMMSTVGVNPYFLPATLGFGMHNHMLTAMASAHGLNPANHMMPSPLIPALNWPLPPFTNISFPHSSSQSLFLTTSSPASSPQSLHGLVPYFPSFLDFSSHAMRRL
Take B1: the binding result in experiment [1] and in experiment [2] was “binds” in each case.
